Laboratory results as given in the supplement of paper PMC5949888.
Most values lie at the floor of the assay. Slopes are relative: functional sequences can read slightly below zero.

What follows are substances tested on Saccharomyces cerevisiae PS128 hsf1 delta, HSF1(1-493) fusion (assay: growth estimate (transactivation domain function in HSF1 fusion, heat-shock survival) (a.u. (slope of normalised read count over time)); higher = stronger growth at 37°C, i.e. more transactivation activity). Conditions: library: random library.
For VWCKYI, the growth estimate was less than -0.25. Substance VWEF has a growth estimate of less than -0.25. VWEKSIAYCRWKLIRRATRR showed a growth estimate of less than -0.25. VWG gave a growth estimate of less than -0.25. With VWGKGPVKNAALIDIWGRGQ the growth estimate was -0.205. In the case of VWGLRAGAFAVQVTDVNGPD, the growth estimate is reported as less than -0.25. VWGVRCN gave a growth estimate of less than -0.25. VWHQYSGYQLSC showed a growth estimate of less than -0.25. In the case of VWLGVYEHSSLAR, the growth estimate is reported as less than -0.25. For VWPCHAGNGCRENCRSGALT, the growth estimate was less than -0.25. Work on VWPRFALIAGWVGQACISLV yielded a growth estimate of less than -0.25. For VWPSFPALSKPYKSLRDFCD, the growth estimate was less than -0.25. For VWQG, the growth estimate was less than -0.25. Substance VWRKKRCEQR has a growth estimate of less than -0.25. In the case of VWRSANRNPAEARRQWSVVD, the growth estimate is reported as -0.246. Substance VWTPTFRPPDRSGVAALLRA has a growth estimate of less than -0.25. VWVQGTVPRITVFNLFCAA showed a growth estimate of less than -0.25. For VWYEDH, the growth estimate was less than -0.25. In the case of VWYGASVQRSFHF, the growth estimate is reported as less than -0.25. VYAPAPVIL was tested, and the growth estimate was less than -0.25. For VYCYRREGAYVQVSRSEVSS, the growth estimate was less than -0.25. VYFAELRDFRRFNMRMVLAY was tested, and the growth estimate was less than -0.25. In the case of VYGWDGR, the growth estimate is reported as less than -0.25. VYHAGGRKGSTGVLRTCASI gave a growth estimate of less than -0.25. VYLSGNTR gave a growth estimate of less than -0.25. VYLTRLLHCSVSTVRSFPVD was tested, and the growth estimate was less than -0.25. VYNRARRSYLNTKMEEGPPS gave a growth estimate of less than -0.25. Substance VYSAFTGADSLCSLLINDEP has a growth estimate of less than -0.25. In the case of VYSDVKVRKVCFGSVRLPAP, the growth estimate is reported as less than -0.25. For VYSRSKVPMVYADLHWLALR, the growth estimate was less than -0.25. In the case of VYTTP, the growth estimate is reported as less than -0.25. Work on VYTYCVYAEVRARYRLLWTM yielded a growth estimate of less than -0.25. VYVIGSLGRASAGRVS gave a growth estimate of less than -0.25. VYVRLNLAEATIC was tested, and the growth estimate was less than -0.25. VYVTTPFNSSL was tested, and the growth estimate was less than -0.25. For VYYASLCLG, the growth estimate was less than -0.25. Work on VYYLDSELIVSIYTKTGRRT yielded a growth estimate of less than -0.25. With VYYTGWGHVRSPIR the growth estimate was less than -0.25. WAGMQGGALPHLYL showed a growth estimate of less than -0.25. WAHCDTLRLVYIIIQARGIV showed a growth estimate of less than -0.25. WAIMGHFTCDNNRRG showed a growth estimate of less than -0.25. WAPLERWDKDPD was tested, and the growth estimate was less than -0.25. In the case of WAPP, the growth estimate is reported as less than -0.25. Substance WARRGTGVSLEKSYGVV has a growth estimate of less than -0.25. WCCS showed a growth estimate of less than -0.25. With WCK the growth estimate was less than -0.25. With WCKCRAANPTAGMSRI the growth estimate was less than -0.25. For WCQMPTNRNHS, the growth estimate was less than -0.25. For WCRGLTV, the growth estimate was less than -0.25. WCSKHIFQM was tested, and the growth estimate was less than -0.25. In the case of WCTLLV, the growth estimate is reported as less than -0.25. Work on WCVTNQETGSMAESWRMIYV yielded a growth estimate of less than -0.25. WCWSR gave a growth estimate of less than -0.25. WDG was tested, and the growth estimate was less than -0.25. In the case of WDNLL, the growth estimate is reported as less than -0.25. With WDP the growth estimate was less than -0.25. In the case of WDSQWDCKHSVRHRAA, the growth estimate is reported as less than -0.25. Work on WDVRGAKRQHSSGVFLAREV yielded a growth estimate of 0.0474. Work on WDYYGSGGVYVVGTYEDVLI yielded a growth estimate of less than -0.25. For WEASSRPKTNRYGSGIQALY, the growth estimate was less than -0.25. In the case of WEDPVSDLQKAEGVALLHSL, the growth estimate is reported as less than -0.25. WEHCPGQ showed a growth estimate of less than -0.25. WEHETRIRPASVWCHLTKCA gave a growth estimate of less than -0.25. WEKPRVLELGGQVEWRS was tested, and the growth estimate was less than -0.25. In the case of WESGQSAPYENGSPLNVVTY, the growth estimate is reported as less than -0.25. Work on WEVVDLQAISSWLMVFSTYV yielded a growth estimate of less than -0.25. WFIHARKRPIADAVLTGQPT was tested, and the growth estimate was less than -0.25. Work on WFIYDVFSGWETGYWKGFIS yielded a growth estimate of less than -0.25. Substance WFPLTNSDANTETFLHLNVT has a growth estimate of less than -0.25. With WFVGPISHINWVCKGTRSSS the growth estimate was less than -0.25. With WGAEASHCDLRGICVNGWSY the growth estimate was less than -0.25. WGALQAAEVAPADTDSSCVH was tested, and the growth estimate was less than -0.25. Work on WGCCECPITLTDSSQRVRLS yielded a growth estimate of less than -0.25. In the case of WGFLWCCESGRAGAIVDHGC, the growth estimate is reported as less than -0.25. WGGGLRVGQLSGQVSLRFFC showed a growth estimate of less than -0.25. WGGRSIASYPVCTYGHDRLG was tested, and the growth estimate was less than -0.25. WGHVVHLTFNKFIILPLSPS was tested, and the growth estimate was less than -0.25. In the case of WGI, the growth estimate is reported as less than -0.25. WGKLEDYVYTSSSVVFVGRL was tested, and the growth estimate was less than -0.25. In the case of WGKSLPNDLIIHIRRASPII, the growth estimate is reported as less than -0.25. For WGLIAECTIRRRETS, the growth estimate was less than -0.25. In the case of WGLTFTTKFEAIWSSGA, the growth estimate is reported as less than -0.25. Substance WGMYETLVS has a growth estimate of -0.219. Substance WGNSIATILQPSSARTGNIA has a growth estimate of less than -0.25. In the case of WGPQLQCVIPVWRTIR, the growth estimate is reported as less than -0.25. For WGPTSYCRKQVTSGYLSQLV, the growth estimate was less than -0.25. WGQAVKVYGQVLCLGLGCKD gave a growth estimate of less than -0.25. Substance WGRVLK has a growth estimate of less than -0.25. For WGSGHHSVQSVPASGNLPTT, the growth estimate was less than -0.25. Substance WGTVSGVMASKARFIVHRPR has a growth estimate of less than -0.25. With WHAG the growth estimate was less than -0.25. WHGNRPAQ gave a growth estimate of less than -0.25. For WHMIQDGLLVK, the growth estimate was less than -0.25. Substance WHMPALTLRPGIT has a growth estimate of less than -0.25. Substance WHNPWEQRSARECSFWGEGV has a growth estimate of -0.194. WHRACVF was tested, and the growth estimate was less than -0.25. WHSRNELPWLLEADYL showed a growth estimate of less than -0.25. In the case of WHTTWRAHDR, the growth estimate is reported as less than -0.25. WHWTP gave a growth estimate of less than -0.25. For WIADSQMGAFRVNYFHRHSN, the growth estimate was less than -0.25. With WIFDYSHGYM the growth estimate was less than -0.25. WIFKKASSRAISLGTPL showed a growth estimate of less than -0.25. With WIFVSAVEDDLLS the growth estimate was -0.197. Substance WIGVLLVGSNWPSFNRKV has a growth estimate of -0.245. WIGWQFPGDRTISNICGLKI gave a growth estimate of less than -0.25. For WIHVGDGWSMLKFWGPTVGM, the growth estimate was less than -0.25. In the case of WIPVSNWEGREGEGTVPVPA, the growth estimate is reported as less than -0.25. Substance WIQRPSRVLGDGVCGTSTIG has a growth estimate of less than -0.25. WIRYELGSKVGQPGKRATSG gave a growth estimate of less than -0.25. In the case of WISDTVKSVAPPPLKMMVCH, the growth estimate is reported as -0.246. Work on WITGPRMQLGGAAEIFVARV yielded a growth estimate of less than -0.25. Work on WITVCELRLLEAKVSLPTRA yielded a growth estimate of less than -0.25. WIVTFLRCVSQELGGGRGCI showed a growth estimate of less than -0.25. For WKKR, the growth estimate was less than -0.25. WKKVLKAIC showed a growth estimate of less than -0.25. WKRNNRCLFLSHR gave a growth estimate of less than -0.25. Substance WLEMYNLAREVIGPTG has a growth estimate of less than -0.25. With WLFYSCQSIFVIKGRPVGIQ the growth estimate was less than -0.25. WLGGSLKQTRSLMNEHVQKL gave a growth estimate of less than -0.25. Substance WLHAL has a growth estimate of less than -0.25. Substance WLHETLVRAPAVPTLTRGPS has a growth estimate of less than -0.25. Substance WLHRVRTQIF has a growth estimate of less than -0.25. WLHTLGSYS gave a growth estimate of less than -0.25. For WLSWWEV, the growth estimate was -0.176. WLTTEVDGER showed a growth estimate of -0.243. In the case of WLVEGSAR, the growth estimate is reported as less than -0.25. In the case of WLWSDGALGM, the growth estimate is reported as less than -0.25. Substance WLYCGITSGTNQGTPNYLRN has a growth estimate of less than -0.25. Substance WMESGDIA has a growth estimate of less than -0.25. With WMLLG the growth estimate was less than -0.25. Substance WMYSDSTPSGTETVFLYEDA has a growth estimate of less than -0.25. Substance WNCHSGAGSRSVSHA has a growth estimate of less than -0.25. WNCRVCYFKLRIPSRDTSLP showed a growth estimate of less than -0.25. In the case of WNG, the growth estimate is reported as less than -0.25. Substance WNGRTLCPVAPVCGVAPPRT has a growth estimate of less than -0.25. WNMSR showed a growth estimate of less than -0.25. In the case of WNPDHSGSTVKYTLSPQIRS, the growth estimate is reported as less than -0.25. For WNPGSVYMGRQKNAKGKFLC, the growth estimate was less than -0.25. Substance WNQEAFRGE has a growth estimate of 0.777. WNRNCLRRVLVRSIG was tested, and the growth estimate was less than -0.25. Work on WNVPLSCH yielded a growth estimate of less than -0.25. Substance WPAFAERERCSFGSRSSDAC has a growth estimate of less than -0.25. Work on WPAHHLTQLWCIVVSEGLPR yielded a growth estimate of -0.172. WPDMAGGIREGGMGIRDFSS was tested, and the growth estimate was less than -0.25. In the case of WPDQLLVPEVYPLLARTRR, the growth estimate is reported as less than -0.25.
